Article PMC4161027
No constants are given. Whether binding was seen depends on the method and setting. Binding seen in cells or lysates may run through a third protein. Some results given as binding are weak or reduced against the parent protein; the word gives no strength.

Chains of the proteins cited; added tags and fusions are not shown. Lines headed by an entry give the natural chain unless they say otherwise; changes in a name come on top. Residues count along the entry.
UniProt P63027: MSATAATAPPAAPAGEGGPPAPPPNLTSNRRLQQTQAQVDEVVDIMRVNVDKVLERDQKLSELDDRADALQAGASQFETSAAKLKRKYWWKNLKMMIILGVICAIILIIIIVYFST
Syb2-HA Δ1–31: residues 32-116 of P63027
UniProt O88339: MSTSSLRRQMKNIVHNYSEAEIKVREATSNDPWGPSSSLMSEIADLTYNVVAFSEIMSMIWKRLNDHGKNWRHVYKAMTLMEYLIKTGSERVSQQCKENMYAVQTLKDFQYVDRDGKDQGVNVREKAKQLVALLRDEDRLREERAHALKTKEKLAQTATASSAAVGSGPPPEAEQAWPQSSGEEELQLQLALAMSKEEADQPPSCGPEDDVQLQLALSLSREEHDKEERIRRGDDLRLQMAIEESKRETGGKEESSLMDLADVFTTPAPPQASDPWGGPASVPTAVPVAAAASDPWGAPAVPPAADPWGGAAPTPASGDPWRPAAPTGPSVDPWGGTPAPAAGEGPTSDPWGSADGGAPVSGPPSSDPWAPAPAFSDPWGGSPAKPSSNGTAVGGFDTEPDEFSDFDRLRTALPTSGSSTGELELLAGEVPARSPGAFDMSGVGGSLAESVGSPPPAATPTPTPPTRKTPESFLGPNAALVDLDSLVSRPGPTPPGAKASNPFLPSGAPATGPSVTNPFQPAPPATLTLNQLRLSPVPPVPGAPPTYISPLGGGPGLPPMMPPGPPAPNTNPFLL

Key:
[1] = target: HA-tagged full-length Syb2 (human) (UniProt P63027); assay: co-IP; HeLa cells co-expressing FLAG-tagged epsin 1 and HA-tagged Syb2 constructs; lysis in 150 mM NaCl, 0.1% SDS, 0.5% Triton X-100, 10 mM EDTA, 20 mM Hepes pH 7.4; anti-HA agarose beads 1 hour at 4°C; anti-FLAG immunoblot
Syb2-HA Δ1–31 (human) = Syb2-HA Δ1–31 (human) (UniProt P63027); assay: as above

binding [1]: binds
binding (Syb2-HA Δ1–31 (human)): binds
Substance: FLAG-tagged full-length epsin 1 (from UniProt O88339 1-575)
